Test results published in paper PMC12677699, “Utilizing Proteolytic‐Resistant Nano‐Short Peptide Based on Naphthyl Tail‐Anchored to Combat Bacterial Infections” (Advanced Science, 2025).
Non-standard residues stand in square brackets, D forms with d. Residues, ends and D or L forms follow the SMILES beside them. ξ: configuration not given here. ξAhp(2) = CCCCCC(N)C(=O)O

Experiment: Geometric mean of selectivity index (GMSI)
Details: SI = HC20 or IC50 / GMMIC; 256 μM used where no 20% hemolysis or 50% cell death at > […]

Row | Structure (SMILES) | GMSI (geometric mean of the selectivity index)
1 | CCCCCC(N)C(=O)NC(CCCCC)C(=O)NC(CCCCC)C(=O)NC(CCCCC)C(=O)N[C@H](CCCNC(=N)N)C(=O)N[C@@H](CCCNC(=N)N)C(=O)N[C@@H](CCCNC(=N)N)C(=O)N1CCC[C@H]1C(=O)O (some centres unmarked) [Peptide B4] (H-[ξAhp(2)][ξAhp(2)][ξAhp(2)][ξAhp(2)][dR]RRP-OH; N-terminus assumed) | 9.19
2 | N=C(N)NCCC[C@H](NC(=O)[C@@H](CCCNC(=N)N)NC(=O)[C@H](Cc1cccc2ccccc12)NC(=O)[C@H](Cc1cccc2ccccc12)NC(=O)[C@H](Cc1cccc2ccccc12)NC(=O)[C@@H](N)Cc1cccc2ccccc12)C(=O)N[C@@H](CCCNC(=N)N)C(=O)N1CCC[C@H]1C(=O)O (stereo in doubt) [Peptide N4] | 50.8
